# No constants are given. Whether binding was seen depends on the method and setting. Binding seen in cells or lysates may run through a third protein. A yes stands for co-enrichment or nearness to the bait. Other partners may have been found.
# Amino acid sequences for entries named in this document (tags omitted). Residues count along the entry.
# UniProt O43918, residues 293-354: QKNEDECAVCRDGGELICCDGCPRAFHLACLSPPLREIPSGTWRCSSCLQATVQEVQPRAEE
# UniProt P78527: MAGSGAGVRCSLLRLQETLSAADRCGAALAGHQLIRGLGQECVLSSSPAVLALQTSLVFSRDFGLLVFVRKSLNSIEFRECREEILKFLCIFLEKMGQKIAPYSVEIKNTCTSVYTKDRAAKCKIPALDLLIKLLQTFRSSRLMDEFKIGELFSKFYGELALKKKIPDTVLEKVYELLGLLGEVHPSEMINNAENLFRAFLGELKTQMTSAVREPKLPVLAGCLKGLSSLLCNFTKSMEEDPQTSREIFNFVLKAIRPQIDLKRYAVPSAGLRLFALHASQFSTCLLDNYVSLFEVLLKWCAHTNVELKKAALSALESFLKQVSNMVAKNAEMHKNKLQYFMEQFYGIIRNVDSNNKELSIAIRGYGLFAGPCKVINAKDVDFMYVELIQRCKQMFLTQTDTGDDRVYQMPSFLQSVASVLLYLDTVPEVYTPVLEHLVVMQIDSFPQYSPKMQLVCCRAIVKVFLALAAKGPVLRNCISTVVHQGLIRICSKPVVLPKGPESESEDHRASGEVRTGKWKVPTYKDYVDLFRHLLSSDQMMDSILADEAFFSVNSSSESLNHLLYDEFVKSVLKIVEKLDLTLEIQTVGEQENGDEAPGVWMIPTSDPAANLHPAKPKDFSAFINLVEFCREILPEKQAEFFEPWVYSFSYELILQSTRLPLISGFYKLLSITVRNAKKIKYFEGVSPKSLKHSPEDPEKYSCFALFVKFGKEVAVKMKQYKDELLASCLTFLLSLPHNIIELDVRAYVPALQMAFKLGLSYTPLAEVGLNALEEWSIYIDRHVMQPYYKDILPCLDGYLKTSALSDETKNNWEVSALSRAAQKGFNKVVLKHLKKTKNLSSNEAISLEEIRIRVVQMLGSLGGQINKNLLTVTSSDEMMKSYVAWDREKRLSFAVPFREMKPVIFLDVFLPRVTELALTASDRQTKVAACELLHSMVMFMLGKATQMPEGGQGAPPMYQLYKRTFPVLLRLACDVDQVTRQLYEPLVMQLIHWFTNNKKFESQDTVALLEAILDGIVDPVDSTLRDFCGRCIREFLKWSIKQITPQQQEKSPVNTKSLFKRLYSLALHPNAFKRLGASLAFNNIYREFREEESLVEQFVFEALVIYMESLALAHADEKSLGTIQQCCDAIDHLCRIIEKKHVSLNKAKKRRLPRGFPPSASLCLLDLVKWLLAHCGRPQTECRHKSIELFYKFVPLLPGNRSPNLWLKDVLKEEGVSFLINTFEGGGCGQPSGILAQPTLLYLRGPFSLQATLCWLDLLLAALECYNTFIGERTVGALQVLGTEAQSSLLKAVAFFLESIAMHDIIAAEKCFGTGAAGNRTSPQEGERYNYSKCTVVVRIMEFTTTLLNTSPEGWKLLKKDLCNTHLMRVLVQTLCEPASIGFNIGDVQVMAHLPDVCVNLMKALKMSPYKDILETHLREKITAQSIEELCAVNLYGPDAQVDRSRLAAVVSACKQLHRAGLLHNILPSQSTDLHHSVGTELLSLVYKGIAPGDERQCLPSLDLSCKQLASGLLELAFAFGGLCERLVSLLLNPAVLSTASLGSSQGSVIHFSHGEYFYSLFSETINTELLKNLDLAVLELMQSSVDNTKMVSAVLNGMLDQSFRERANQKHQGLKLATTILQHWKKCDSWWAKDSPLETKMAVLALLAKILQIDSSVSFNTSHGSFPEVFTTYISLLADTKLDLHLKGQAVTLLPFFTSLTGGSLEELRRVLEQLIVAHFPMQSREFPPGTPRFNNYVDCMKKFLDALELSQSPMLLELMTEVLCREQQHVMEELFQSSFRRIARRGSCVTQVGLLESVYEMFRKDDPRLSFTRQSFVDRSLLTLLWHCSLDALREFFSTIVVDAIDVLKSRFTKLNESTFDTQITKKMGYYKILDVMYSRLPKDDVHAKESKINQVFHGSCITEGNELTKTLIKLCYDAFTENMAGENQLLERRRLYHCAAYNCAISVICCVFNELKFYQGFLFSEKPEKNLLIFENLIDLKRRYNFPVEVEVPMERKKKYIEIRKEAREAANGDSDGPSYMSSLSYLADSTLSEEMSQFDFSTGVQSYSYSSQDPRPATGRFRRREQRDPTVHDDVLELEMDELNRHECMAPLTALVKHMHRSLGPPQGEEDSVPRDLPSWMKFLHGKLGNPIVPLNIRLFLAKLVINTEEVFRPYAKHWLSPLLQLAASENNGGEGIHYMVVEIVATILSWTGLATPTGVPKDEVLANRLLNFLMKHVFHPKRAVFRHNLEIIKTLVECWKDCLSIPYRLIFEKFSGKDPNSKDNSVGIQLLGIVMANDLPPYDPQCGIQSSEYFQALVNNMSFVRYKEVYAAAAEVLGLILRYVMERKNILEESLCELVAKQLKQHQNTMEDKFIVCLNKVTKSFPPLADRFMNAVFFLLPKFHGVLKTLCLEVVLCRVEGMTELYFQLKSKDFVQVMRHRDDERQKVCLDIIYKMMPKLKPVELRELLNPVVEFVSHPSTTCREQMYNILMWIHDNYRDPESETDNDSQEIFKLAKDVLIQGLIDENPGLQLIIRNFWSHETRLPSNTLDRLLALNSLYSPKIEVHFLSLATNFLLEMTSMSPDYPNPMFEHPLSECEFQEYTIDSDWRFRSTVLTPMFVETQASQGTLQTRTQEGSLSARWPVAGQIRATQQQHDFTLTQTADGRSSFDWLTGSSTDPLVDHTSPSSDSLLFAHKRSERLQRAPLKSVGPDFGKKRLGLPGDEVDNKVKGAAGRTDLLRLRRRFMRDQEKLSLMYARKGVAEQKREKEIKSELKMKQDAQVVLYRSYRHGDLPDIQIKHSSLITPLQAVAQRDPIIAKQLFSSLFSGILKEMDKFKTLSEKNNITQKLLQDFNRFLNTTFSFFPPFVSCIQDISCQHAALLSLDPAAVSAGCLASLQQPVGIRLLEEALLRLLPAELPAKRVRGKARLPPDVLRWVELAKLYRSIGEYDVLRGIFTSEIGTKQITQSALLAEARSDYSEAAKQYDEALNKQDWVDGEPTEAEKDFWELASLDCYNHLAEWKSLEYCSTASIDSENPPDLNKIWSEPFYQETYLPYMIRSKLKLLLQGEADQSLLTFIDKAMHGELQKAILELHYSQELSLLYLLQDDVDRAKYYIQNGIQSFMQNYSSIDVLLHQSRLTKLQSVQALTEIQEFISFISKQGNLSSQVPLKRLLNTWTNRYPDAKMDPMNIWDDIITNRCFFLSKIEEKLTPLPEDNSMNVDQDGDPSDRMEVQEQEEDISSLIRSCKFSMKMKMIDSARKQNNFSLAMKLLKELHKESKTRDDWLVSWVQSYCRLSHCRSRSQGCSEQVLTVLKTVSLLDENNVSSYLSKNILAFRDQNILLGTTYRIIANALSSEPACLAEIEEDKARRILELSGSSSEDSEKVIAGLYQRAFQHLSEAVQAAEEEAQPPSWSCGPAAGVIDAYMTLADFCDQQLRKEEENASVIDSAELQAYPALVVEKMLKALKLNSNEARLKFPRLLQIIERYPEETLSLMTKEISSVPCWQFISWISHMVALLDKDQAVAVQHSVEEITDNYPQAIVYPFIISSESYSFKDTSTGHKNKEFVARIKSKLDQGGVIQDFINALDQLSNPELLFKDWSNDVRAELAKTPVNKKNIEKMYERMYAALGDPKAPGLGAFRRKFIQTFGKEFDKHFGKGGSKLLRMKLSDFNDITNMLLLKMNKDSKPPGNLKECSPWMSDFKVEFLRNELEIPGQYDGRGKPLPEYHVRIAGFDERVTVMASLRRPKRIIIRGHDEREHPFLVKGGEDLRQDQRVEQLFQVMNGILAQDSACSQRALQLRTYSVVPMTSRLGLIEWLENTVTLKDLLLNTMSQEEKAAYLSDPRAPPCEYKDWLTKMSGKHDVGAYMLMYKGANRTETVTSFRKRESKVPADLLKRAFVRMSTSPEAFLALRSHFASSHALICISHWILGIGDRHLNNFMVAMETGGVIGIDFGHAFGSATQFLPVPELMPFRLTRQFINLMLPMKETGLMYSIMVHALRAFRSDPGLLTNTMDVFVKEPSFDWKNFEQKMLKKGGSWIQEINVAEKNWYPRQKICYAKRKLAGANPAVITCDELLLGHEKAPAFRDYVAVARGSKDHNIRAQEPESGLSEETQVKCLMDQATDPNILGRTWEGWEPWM
# UniProt P12956: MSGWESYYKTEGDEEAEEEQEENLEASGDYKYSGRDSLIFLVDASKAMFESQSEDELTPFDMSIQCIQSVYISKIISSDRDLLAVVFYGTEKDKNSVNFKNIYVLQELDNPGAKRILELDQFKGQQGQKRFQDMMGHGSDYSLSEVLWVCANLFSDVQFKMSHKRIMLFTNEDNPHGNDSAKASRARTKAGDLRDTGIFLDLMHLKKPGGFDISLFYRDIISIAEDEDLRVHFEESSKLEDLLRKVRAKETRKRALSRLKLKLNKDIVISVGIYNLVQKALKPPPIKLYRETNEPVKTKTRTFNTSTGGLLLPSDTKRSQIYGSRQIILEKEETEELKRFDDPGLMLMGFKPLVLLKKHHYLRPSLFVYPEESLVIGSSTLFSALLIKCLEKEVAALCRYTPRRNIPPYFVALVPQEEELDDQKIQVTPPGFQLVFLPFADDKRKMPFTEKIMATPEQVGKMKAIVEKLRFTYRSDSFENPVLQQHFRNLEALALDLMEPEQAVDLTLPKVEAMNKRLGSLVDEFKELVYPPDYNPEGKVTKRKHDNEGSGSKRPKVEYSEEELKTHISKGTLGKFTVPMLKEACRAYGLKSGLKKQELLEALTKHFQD
# UniProt P13010: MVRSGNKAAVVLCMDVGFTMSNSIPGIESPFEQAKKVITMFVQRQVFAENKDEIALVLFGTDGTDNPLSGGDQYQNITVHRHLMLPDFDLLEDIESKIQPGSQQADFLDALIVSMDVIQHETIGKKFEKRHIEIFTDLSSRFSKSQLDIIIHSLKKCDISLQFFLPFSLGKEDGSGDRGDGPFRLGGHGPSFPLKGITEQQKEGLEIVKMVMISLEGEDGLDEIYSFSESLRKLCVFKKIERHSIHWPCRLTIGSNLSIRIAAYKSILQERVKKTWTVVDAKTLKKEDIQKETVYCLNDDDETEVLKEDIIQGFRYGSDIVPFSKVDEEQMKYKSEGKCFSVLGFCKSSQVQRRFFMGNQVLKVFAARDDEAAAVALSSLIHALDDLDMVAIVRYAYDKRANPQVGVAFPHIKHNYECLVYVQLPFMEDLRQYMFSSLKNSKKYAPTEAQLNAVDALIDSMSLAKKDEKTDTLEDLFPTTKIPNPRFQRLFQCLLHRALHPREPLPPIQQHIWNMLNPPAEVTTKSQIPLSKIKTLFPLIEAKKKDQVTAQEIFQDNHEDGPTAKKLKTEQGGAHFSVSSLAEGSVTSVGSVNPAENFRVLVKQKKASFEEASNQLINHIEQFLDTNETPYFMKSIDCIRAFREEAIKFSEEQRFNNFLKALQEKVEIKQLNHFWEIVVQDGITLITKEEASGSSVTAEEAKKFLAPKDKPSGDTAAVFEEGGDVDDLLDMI
# Molecular target: GST-AIRE-PHD1 (human) (UniProt O43918)
# Assay: affinity purification with mass spectrometry; 20-25 ug GST-fusion protein on 25 ul glutathione sepharose beads, 50-100 ug THP-1 nuclear extract, buffer B1 (10 mM HEPES pH 8.0, 150 mM NaCl, 0.7 mM MgCl2, 12.5% glycerol, 0.1 mM EDTA, 25 uM ZnCl2, 0.5 mM DTT), overnight 4 C; bands from Coomassie-stained SDS-PAGE identified by MALDI-TOF; only the target purified
row,Substance,binding
1,"DNA-PK catalytic subunit (DNA-PKcs), THP-1 (from UniProt P78527 1-4128) (enzyme)",binds
2,Ku70 (from UniProt P12956 1-609),binds
3,Ku80 (from UniProt P13010 1-732),binds

# — publication PMC2225445
